US8961924B2, “Metal complexes” (University of Zurich, priority 2008, dated 2015)
Some entries share one result that the patent states for a list of compounds.

Assay: Stability in saline / pH stability (hydrolysis to pertechnetate, HPLC γ-trace)
Format: physicochemical
Details: saline between pH 6 and 8, for hours; FIG. 6

SMILES: [O]=[Tc]12(=[O])(=[O])[N]3CC[N]1CC[N]2CC3 [Compound 1, [TcO3(tacn)]^+]
- stability in saline (hydrolysis to pertechnetate): stable
